# Values of other authors, collected in paper PMC6640931 (ACS Omega, 2017).
# Conditions: cited from earlier work
smiles,measurement,value
COc1ccc2cc(C(C)C(=O)[O-])ccc2c1.C[N+](C)(C)CCO (stereo not shown) [choline naproxen],water solubility of choline salt relative to neutral form,6700 times
